# The supplement of paper PMC8728848
# Some of the results follow.
# Legend:
# Assay in all cases: glycan array binding signal (z-score within array); higher = stronger binding
# Conditions in all cases: glycan notation: IUPAC condensed, linker removed
# Man(a1-6)Man = biological target: Man(a1-6)Man
# How it was run: (§1)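 From the Consortium for Functional Glycomics database, 3228 arrays were curated, keeping only those whose protein sequence was available. Binding is given as a within-array Z-score averaged across arrays sharing a protein sequence and across linkers. Negative Z-scores can be read as non-binding.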
# Man(b1-4)GlcNAc = biological target: Man(b1-4)GlcNAc
# How it was run: as §1
# MurNAc(b1-4)GlcNAc = biological target: MurNAc(b1-4)GlcNAc
# How it was run: as §1
# Neu5Ac(a2-3)Gal = biological target: Neu5Ac(a2-3)Gal
# How it was run: as §1
# [1] = biological target: Neu5Ac(a2-3)Gal(b1-3)GalNAc
# How it was run: as §1
# [2] = biological target: Neu5Ac(a2-3)Gal(b1-3)GalNAc(b1-3)Gal(a1-4)Gal(b1-4)Glc
# How it was run: as §1
# [3] = biological target: Neu5Ac(a2-3)Gal(b1-3)GalNAc(b1-3)Gal(b1-4)GlcNAc
# How it was run: as §1
# [4] = biological target: Neu5Ac(a2-3)Gal(b1-3)GalNAc(b1-4)Gal(b1-4)Glc
# How it was run: as §1
# [5] = biological target: Neu5Ac(a2-3)Gal(b1-3)GalNAc(b1-4)[Neu5Ac(a2-3)]Gal(b1-4)Glc
# How it was run: as §1
# [6] = biological target: Neu5Ac(a2-3)Gal(b1-3)GalNAc(b1-4)[Neu5Ac(a2-8)Neu5Ac(a2-3)]Gal(b1-4)Glc
# How it was run: as §1
# [7] = biological target: Neu5Ac(a2-3)Gal(b1-3)GalNAc6S
# How it was run: as §1
# [8] = biological target: Neu5Ac(a2-3)Gal(b1-3)GlcNAc
# How it was run: as §1
# [9] = biological target: Neu5Ac(a2-3)Gal(b1-3)GlcNAc(b1-2)Man
# How it was run: as §1
# [10] = biological target: Neu5Ac(a2-3)Gal(b1-3)GlcNAc(b1-2)Man(a1-3)[GlcNAc(b1-4)][Neu5Ac(a2-3)Gal(b1-3)GlcNAc(b1-2)Man(a1-6)]Man(b1-4)GlcNAc(b1-4)GlcNAc
# How it was run: as §1
# [11] = biological target: Neu5Ac(a2-3)Gal(b1-3)GlcNAc(b1-2)Man(a1-3)[Neu5Ac(a2-3)Gal(b1-3)GlcNAc(b1-2)Man(a1-6)]Man(b1-4)GlcNAc(b1-4)GlcNAc
# How it was run: as §1
# [12] = biological target: Neu5Ac(a2-3)Gal(b1-3)GlcNAc(b1-2)[Neu5Ac(a2-3)Gal(b1-3)GlcNAc(b1-4)]Man(a1-6)[Neu5Ac(a2-3)Gal(b1-3)GlcNAc(b1-2)Man(a1-3)]Man(b1-4)GlcNAc(b1-4)GlcNAc
# How it was run: as §1
# [13] = biological target: Neu5Ac(a2-3)Gal(b1-3)GlcNAc(b1-3)Gal(b1-3)GlcNAc
# How it was run: as §1
# [14] = biological target: Neu5Ac(a2-3)Gal(b1-3)GlcNAc(b1-3)Gal(b1-4)GlcNAc
# How it was run: as §1
# [15] = biological target: Neu5Ac(a2-3)Gal(b1-3)GlcNAc(b1-3)GalNAc
# How it was run: as §1
# [16] = biological target: Neu5Ac(a2-3)Gal(b1-3)GlcNAc(b1-6)GalNAc
# How it was run: as §1
# [17] = biological target: Neu5Ac(a2-3)Gal(b1-3)GlcNAc6S
# How it was run: as §1
# [18] = biological target: Neu5Ac(a2-3)Gal(b1-3)[Fuc(a1-4)]GlcNAc
# How it was run: as §1
# [19] = biological target: Neu5Ac(a2-3)Gal(b1-3)[Fuc(a1-4)]GlcNAc(b1-3)Gal(b1-3)[Fuc(a1-4)]GlcNAc
# How it was run: as §1
# [20] = biological target: Neu5Ac(a2-3)Gal(b1-3)[Fuc(a1-4)]GlcNAc(b1-3)Gal(b1-4)[Fuc(a1-3)]GlcNAc
# How it was run: as §1
# [21] = biological target: Neu5Ac(a2-3)Gal(b1-3)[GlcNAc(b1-6)]GalNAc
# How it was run: as §1
# [22] = biological target: Neu5Ac(a2-3)Gal(b1-3)[Neu5Ac(a2-3)Gal(b1-4)]GlcNAc
# How it was run: as §1
# [23] = biological target: Neu5Ac(a2-3)Gal(b1-3)[Neu5Ac(a2-6)]GalNAc
# How it was run: as §1
# [24] = biological target: Neu5Ac(a2-3)Gal(b1-3)[Neu5Ac(a2-6)]GlcNAc(b1-3)[Fuc(a1-3)[Gal(b1-4)]GlcNAc(b1-6)]Gal(b1-4)Glc
# How it was run: as §1
# [25] = biological target: Neu5Ac(a2-3)Gal(b1-3)]Neu5Ac(a2-3)Gal(b1-4)]GlcNAc
# How it was run: as §1
# Neu5Ac(a2-3)Gal(b1-4)Glc = biological target: Neu5Ac(a2-3)Gal(b1-4)Glc
# How it was run: as §1
# [26] = biological target: Neu5Ac(a2-3)Gal(b1-4)GlcNAc
# How it was run: as §1
# [27] = biological target: Neu5Ac(a2-3)Gal(b1-4)GlcNAc(b1-2)Man
# How it was run: as §1
# [28] = biological target: Neu5Ac(a2-3)Gal(b1-4)GlcNAc(b1-2)Man(a1-3)[GlcNAc(b1-2)Man(b1-4)GlcNAc(b1-2)Man(a1-6)]Man(b1-4)GlcNAc(b1-4)GlcNAc
# How it was run: as §1
# [29] = biological target: Neu5Ac(a2-3)Gal(b1-4)GlcNAc(b1-2)Man(a1-3)[GlcNAc(b1-4)][Neu5Ac(a2-3)Gal(b1-4)GlcNAc(b1-2)Man(a1-6)]Man(b1-4)GlcNAc(b1-4)GlcNAc
# How it was run: as §1
# [30] = biological target: Neu5Ac(a2-3)Gal(b1-4)GlcNAc(b1-2)Man(a1-3)[Neu5Ac(a2-3)Gal(b1-4)GlcNAc(b1-2)Man(a1-6)]Man(b1-4)GlcNAc(b1-4)GlcNAc
# How it was run: as §1
# [31] = biological target: Neu5Ac(a2-3)Gal(b1-4)GlcNAc(b1-2)Man(a1-3)[Neu5Ac(a2-3)Gal(b1-4)GlcNAc(b1-2)Man(a1-6)]Man(b1-4)GlcNAc(b1-4)[Fuc(a1-6)]GlcNAc
# How it was run: as §1
binder,measurement,setting,value
"BabA (Helicobacter pylori), O52269_HELPY (protein) AEDDGFYMSAGYQIGEAAQMVKNTKGIQELSDNYENLSNLLTRYSTLNTLIKLSADPSAVNAARENLGASAKNLIGDTKNSPAYQAVLLAINAAVGFWNVVGYVTQCGGNANGQKSTSSTTIFNNEPGYRSTSITCSLNGHMPGYYGPMSIENFKKLNEAYQILQTALKNGLPALKENNGTVNVTYSYTCSGEGNDNCSLQTTGVTNQNNGTKTETQTIDGKSVTTTISSKVVDSQ",glycan array binding signal (z-score),Man(a1-6)Man,0.859
same,glycan array binding signal (z-score),Man(b1-4)GlcNAc,0.169
same,glycan array binding signal (z-score),MurNAc(b1-4)GlcNAc,-0.046
same,glycan array binding signal (z-score),Neu5Ac(a2-3)Gal,0.143
same,glycan array binding signal (z-score),[1],0.087
same,glycan array binding signal (z-score),[2],-0.606
same,glycan array binding signal (z-score),[3],-0.872
same,glycan array binding signal (z-score),[4],-0.537
same,glycan array binding signal (z-score),[5],-0.458
same,glycan array binding signal (z-score),[6],-0.528
same,glycan array binding signal (z-score),[7],0.26
same,glycan array binding signal (z-score),[8],0.201
same,glycan array binding signal (z-score),[9],-0.7
same,glycan array binding signal (z-score),[10],-0.582
same,glycan array binding signal (z-score),[11],0.917
same,glycan array binding signal (z-score),[12],0.217
same,glycan array binding signal (z-score),[13],-0.829
same,glycan array binding signal (z-score),[14],-0.773
same,glycan array binding signal (z-score),[15],-0.5
same,glycan array binding signal (z-score),[16],-0.191
same,glycan array binding signal (z-score),[17],1.11
same,glycan array binding signal (z-score),[18],-0.469
same,glycan array binding signal (z-score),[19],-0.004
same,glycan array binding signal (z-score),[20],0.749
same,glycan array binding signal (z-score),[21],0.008
same,glycan array binding signal (z-score),[22],-0.816
same,glycan array binding signal (z-score),[23],0.266
same,glycan array binding signal (z-score),[24],-0.092
same,glycan array binding signal (z-score),[25],0.508
same,glycan array binding signal (z-score),Neu5Ac(a2-3)Gal(b1-4)Glc,0.807
same,glycan array binding signal (z-score),[26],-0.136
same,glycan array binding signal (z-score),[27],0.699
same,glycan array binding signal (z-score),[28],-1.52
same,glycan array binding signal (z-score),[29],-0.637
same,glycan array binding signal (z-score),[30],-0.555
same,glycan array binding signal (z-score),[31],0.726

# A run of entries taken from the entries so far:
binder,measurement,setting,value
"BabA (Helicobacter pylori), O52269_HELPY (protein) AEDDGFYMSAGYQIGEAAQMVKNTKGIQELSDNYENLSNLLTRYSTLNTLIKLSADPSAVNAARENLGASAKNLIGDTKNSPAYQAVLLAINAAVGFWNVVGYVTQCGGNANGQKSTSSTTIFNNEPGYRSTSITCSLNGHMPGYYGPMSIENFKKLNEAYQILQTALKNGLPALKENNGTVNVTYSYTCSGEGNDNCSLQTTGVTNQNNGTKTETQTIDGKSVTTTISSKVVDSQ",glycan array binding signal (z-score),[7],0.26
same,glycan array binding signal (z-score),[8],0.201
